Each structure is given as a SMILES string. The list shows a part of the results. Most values lie at the level of the controls, where differences are scatter.

What all share (assay): log2 fold change of tryptic peptide abundance, ligand vs vehicle (limited proteolysis) (log2 ratio); higher = more trypsin-susceptible (destabilized)
One assay deals with T1, IVNS1ABP (UniProt Q9Y6Y0).
T1 sequence (whole entry): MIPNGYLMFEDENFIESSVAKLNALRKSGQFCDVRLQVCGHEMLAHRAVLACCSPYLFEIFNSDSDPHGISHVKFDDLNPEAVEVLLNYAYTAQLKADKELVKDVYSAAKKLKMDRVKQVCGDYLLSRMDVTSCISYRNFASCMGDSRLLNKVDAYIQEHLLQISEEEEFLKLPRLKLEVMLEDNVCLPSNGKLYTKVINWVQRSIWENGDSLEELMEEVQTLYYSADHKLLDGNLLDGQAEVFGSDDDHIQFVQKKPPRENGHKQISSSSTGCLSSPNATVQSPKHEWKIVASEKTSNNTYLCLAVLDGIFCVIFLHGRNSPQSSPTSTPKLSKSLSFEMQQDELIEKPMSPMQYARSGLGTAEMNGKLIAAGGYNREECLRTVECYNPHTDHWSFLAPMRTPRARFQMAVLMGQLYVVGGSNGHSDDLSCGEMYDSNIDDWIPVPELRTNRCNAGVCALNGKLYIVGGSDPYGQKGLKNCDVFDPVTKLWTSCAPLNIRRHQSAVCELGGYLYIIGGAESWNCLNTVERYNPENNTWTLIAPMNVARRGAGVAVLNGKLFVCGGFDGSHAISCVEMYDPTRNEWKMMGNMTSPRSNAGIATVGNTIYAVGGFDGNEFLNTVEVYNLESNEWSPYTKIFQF
Particulars: peptide sequence: SGQFCDVR; peptide start residue: 28; ligand concentration: 5 uM; sample: K562 cleared lysate.

The target of the next assay is T2, MORC2 (UniProt Q9Y6X9).
T2 sequence (whole entry): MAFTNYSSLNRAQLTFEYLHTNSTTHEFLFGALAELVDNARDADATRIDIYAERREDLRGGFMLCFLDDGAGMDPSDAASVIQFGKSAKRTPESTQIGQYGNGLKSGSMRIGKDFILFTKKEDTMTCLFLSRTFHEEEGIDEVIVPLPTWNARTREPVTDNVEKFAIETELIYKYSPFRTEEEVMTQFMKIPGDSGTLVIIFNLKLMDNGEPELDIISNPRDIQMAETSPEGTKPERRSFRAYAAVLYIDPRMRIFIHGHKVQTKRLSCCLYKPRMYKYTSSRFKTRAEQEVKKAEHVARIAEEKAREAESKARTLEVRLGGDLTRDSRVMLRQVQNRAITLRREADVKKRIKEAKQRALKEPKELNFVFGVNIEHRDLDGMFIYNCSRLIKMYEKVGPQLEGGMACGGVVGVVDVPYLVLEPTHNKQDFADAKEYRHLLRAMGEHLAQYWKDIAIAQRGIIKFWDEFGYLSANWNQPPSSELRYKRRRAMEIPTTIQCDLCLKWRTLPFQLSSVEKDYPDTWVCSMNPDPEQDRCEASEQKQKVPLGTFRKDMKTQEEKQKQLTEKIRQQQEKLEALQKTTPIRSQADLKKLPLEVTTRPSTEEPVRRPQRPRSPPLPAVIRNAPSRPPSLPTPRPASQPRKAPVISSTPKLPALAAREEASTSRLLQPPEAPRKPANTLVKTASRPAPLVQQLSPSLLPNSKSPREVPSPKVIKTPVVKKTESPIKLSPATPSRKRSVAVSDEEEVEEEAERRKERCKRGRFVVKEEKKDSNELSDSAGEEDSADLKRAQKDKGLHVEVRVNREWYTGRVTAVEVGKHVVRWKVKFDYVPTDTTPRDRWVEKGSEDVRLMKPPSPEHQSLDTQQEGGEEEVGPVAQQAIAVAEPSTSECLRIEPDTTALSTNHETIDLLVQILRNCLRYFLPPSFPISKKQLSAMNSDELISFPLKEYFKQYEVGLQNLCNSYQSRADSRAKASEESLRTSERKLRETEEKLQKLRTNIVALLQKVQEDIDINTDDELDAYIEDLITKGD
Particulars: peptide sequence: AKASEESLR; peptide start residue: 973; ligand concentration: 5 uM; sample: K562 cleared lysate.

The target of the next assay is T3, SEC23IP (UniProt Q9Y6Y8).
T3 sequence (whole entry): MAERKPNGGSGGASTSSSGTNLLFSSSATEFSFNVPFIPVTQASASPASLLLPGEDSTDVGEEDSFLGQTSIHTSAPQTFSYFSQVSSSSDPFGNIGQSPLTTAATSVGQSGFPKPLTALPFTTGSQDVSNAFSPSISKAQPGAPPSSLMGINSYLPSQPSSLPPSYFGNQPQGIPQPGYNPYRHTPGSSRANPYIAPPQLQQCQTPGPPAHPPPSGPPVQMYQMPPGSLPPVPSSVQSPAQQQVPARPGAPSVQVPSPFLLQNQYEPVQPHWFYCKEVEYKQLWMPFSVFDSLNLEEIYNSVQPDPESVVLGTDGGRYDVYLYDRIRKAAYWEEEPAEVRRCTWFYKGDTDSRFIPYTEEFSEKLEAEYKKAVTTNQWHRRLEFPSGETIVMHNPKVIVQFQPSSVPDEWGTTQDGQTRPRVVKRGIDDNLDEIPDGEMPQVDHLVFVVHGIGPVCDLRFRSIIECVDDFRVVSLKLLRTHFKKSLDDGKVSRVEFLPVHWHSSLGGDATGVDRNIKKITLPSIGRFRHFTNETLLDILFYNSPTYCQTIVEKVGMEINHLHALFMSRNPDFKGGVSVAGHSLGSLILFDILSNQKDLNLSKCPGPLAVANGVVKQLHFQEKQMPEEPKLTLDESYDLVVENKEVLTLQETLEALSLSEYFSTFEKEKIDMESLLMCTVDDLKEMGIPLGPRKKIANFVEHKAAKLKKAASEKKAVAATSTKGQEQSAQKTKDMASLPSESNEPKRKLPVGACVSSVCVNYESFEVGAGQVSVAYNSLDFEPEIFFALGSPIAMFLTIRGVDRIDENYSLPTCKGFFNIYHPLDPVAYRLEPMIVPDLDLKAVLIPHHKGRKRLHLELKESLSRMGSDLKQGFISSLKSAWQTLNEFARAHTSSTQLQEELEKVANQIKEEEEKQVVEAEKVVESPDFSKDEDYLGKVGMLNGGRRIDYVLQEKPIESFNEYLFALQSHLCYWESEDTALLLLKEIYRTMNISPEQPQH
As to conditions: peptide sequence: RLEFPSGETIVMHNPK; peptide start residue: 382; ligand concentration: 5 uM; sample: K562 cleared lysate.

Regarding `Cc1nc(Nc2ncc(C(=O)Nc3c(C)cccc3Cl)s2)cc(N2CCN(CCO)CC2)n1` [dasatinib], the results for the log2 fold change with IVNS1ABP, with MORC2 and with SEC23IP were 0.114, -0.204 and -0.328, respectively.

The values are drawn from the supplement of paper PMC12819154, “High-throughput peptide-centric local stability assay extends protein–ligand identification to membrane proteins, tissues and bacteria” (Nature Structural & Molecular Biology, 2025).
